# From article PMC8803816
# Results are given in words; binding and its absence hold for the method and conditions named. In cells and extracts the contact can be indirect. These calls come from enrichment with a bait or labelling near it, and not all partners need be listed.
# T1: B cell lymphoma/leukemia 10 (BCL10) (human (endogenous in Jurkat)), O95999
# T1 chain: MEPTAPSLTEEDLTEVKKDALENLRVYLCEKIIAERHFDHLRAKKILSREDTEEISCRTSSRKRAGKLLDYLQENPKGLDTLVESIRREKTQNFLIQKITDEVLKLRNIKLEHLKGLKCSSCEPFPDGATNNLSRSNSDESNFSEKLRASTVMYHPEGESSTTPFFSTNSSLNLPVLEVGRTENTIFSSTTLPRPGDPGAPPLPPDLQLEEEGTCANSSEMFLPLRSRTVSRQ
# Assays:
# [1] = biological target: T1, B cell lymphoma/leukemia 10 (BCL10) …; test: affinity purification with mass spectrometry; anti-BCL10 (C-17) IP from CK1α KO Jurkat T cells reconstituted with CK1α WT, untreated or P/I stimulated 20 min; 1% NP40 buffer; on-bead digestion, quantitative LC-MS/MS (n = 3); conditions: remark: other sources report otherwise
# [2] = substrate: T2, B cell lymphoma/leukemia 10 (BCL10) (human (endogenous in Jurkat)) (UniProt O95999); test: as above
# T2 sequence: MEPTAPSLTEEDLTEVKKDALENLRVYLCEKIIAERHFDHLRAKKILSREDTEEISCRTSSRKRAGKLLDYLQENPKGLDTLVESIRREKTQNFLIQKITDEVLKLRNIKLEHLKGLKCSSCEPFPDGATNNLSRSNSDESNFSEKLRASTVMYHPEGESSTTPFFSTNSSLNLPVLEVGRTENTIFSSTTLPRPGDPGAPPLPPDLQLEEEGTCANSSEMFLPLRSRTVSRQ
Binder,binding [1],binding [2]
"Heme-oxidized IRP2 ubiquitin ligase 1 (HOIL-1), Q9BYM8 1-510 (protein) MDEKTKKAEEMALSLTRAVAGGDEQVAMKCAIWLAEQRVPLSVQLKPEVSPTQDIRLWVSVEDAQMHTVTIWLTVRPDMTVASLKDMVFLDYGFPPVLQQWVIGQRLARDQETLHSHGVRQNGDSAYLYLLSARNTSLNPQELQRERQLRMLEDLGFKDLTLQPRGPLEPGPPKPGVPQEPGRGQPDAVPEPPPVGWQCPGCTFINKPTRPGCEMCCRARPEAYQVPASYQPDEEERARLAGEEEALRQYQQRKQQQQEGNYLQHVQLDQRSLVLNTEPAECPVCYSVLAPGEAVVLRECLHTFCRECLQGTIRNSQEAEVSCPFIDNTYSCSGKLLEREIKALLTPEDYQRFLDLGISIAENRSAFSYHCKTPDCKGWCFFEDDVNEFTCPVCFHVNCLLCKAIHEQMNCKEYQEDLALRAQNDVAARQTTEMLKVMLQQGEAMRCPQCQIVVQKKDGCDWIRCTVCHTEICWVTKGPRWGPGGPGDTSGGCRCRVNGIPCHPSCQNCH",binds,–
"SHANK-associated RH domain interactor (SHARPIN), Q9H0F6 1-387 (protein) MAPPAGGAAAAASDLGSAAVLLAVHAAVRPLGAGPDAEAQLRRLQLSADPERPGRFRLELLGAGPGAVNLEWPLESVSYTIRGPTQHELQPPPGGPGTLSLHFLNPQEAQRWAVLVRGATVEGQNGSKSNSPPALGPEACPVSLPSPPEASTLKGPPPEADLPRSPGNLTEREELAGSLARAIAGGDEKGAAQVAAVLAQHRVALSVQLQEACFPPGPIRLQVTLEDAASAASAASSAHVALQVHPHCTVAALQEQVFSELGFPPAVQRWVIGRCLCVPERSLASYGVRQDGDPAFLYLLSAPREAPATGPSPQHPQKMDGELGRLFPPSLGLPPGPQPAASSLPSPLQPSWSCPSCTFINAPDRPGCEMCSTQRPCTWDPLAAAST",binds,–
"Aryl hydrocarbon receptor-interacting protein (AIP) (protein, UniProt O00170 1-330) MADIIARLREDGIQKRVIQEGRGELPDFQDGTKATFHYRTLHSDDEGTVLDDSRARGKPMELIIGKKFKLPVWETIVCTMREGEIAQFLCDIKHVVLYPLVAKSLRNIAVGKDPLEGQRHCCGVAQMREHSSLGHADLDALQQNPQPLIFHMEMLKVESPGTYQQDPWAMTDEEKAKAVPLIHQEGNRLYREGHVKEAAAKYYDAIACLKNLQMKEQPGSPEWIQLDQQITPLLLNYCQCKLVVEEYYEVLDHCSSILNKYDDNVKAYFKRGKAHAAVWNAQEAQADFAKVLELDPALAPVVSRELRALEARIRQKDEEDKARFRGIFSH",–,binds
"IKKε (IKBKE) (protein, UniProt Q14164 1-716) MQSTANYLWHTDDLLGQGATASVYKARNKKSGELVAVKVFNTTSYLRPREVQVREFEVLRKLNHQNIVKLFAVEETGGSRQKVLVMEYCSSGSLLSVLESPENAFGLPEDEFLVVLRCVVAGMNHLRENGIVHRDIKPGNIMRLVGEEGQSIYKLTDFGAARELDDDEKFVSVYGTEEYLHPDMYERAVLRKPQQKAFGVTVDLWSIGVTLYHAATGSLPFIPFGGPRRNKEIMYRITTEKPAGAIAGAQRRENGPLEWSYTLPITCQLSLGLQSQLVPILANILEVEQAKCWGFDQFFAETSDILQRVVVHVFSLSQAVLHHIYIHAHNTIAIFQEAVHKQTSVAPRHQEYLFEGHLCVLEPSVSAQHIAHTTASSPLTLFSTAIPKGLAFRDPALDVPKFVPKVDLQADYNTAKGVLGAGYQALRLARALLDGQELMFRGLHWVMEVLQATCRRTLEVARTSLLYLSSSLGTERFSSVAGTPEIQELKAAAELRSRLRTLAEVLSRCSQNITETQESLSSLNRELVKSRDQVHEDRSIQQIQCCLDKMNFIYKQFKKSRMRPGLGYNEEQIHKLDKVNFSHLAKRLLQVFQEECVQKYQASLVTHGKRMRVVHETRNHLRLVGCSVAACNTEAQGVQESLSKLLEELSHQLLQDRAKGAQASPPPIAPYPSPTRKDLLLHMQELCEGMKLLASDLLDNNRIIERLNRVPAPPDV",–,binds
